Publication PMC11727070
No constants are given. Whether binding was seen depends on the method and setting. Some results given as binding are weak or reduced against the parent protein; the word gives no strength.

Chains of the proteins cited; added tags and fusions are not shown. Lines headed by an entry give the natural chain unless they say otherwise; changes in a name come on top. A line that says so, or that is headed by a name, gives the form on record, which may keep a tag or linker. Residues count along the entry.
SUMO-tagged WIPI3^Δ (human WIPI3 residues 8–344 without residues 264–281) (Q5MNZ6, form named): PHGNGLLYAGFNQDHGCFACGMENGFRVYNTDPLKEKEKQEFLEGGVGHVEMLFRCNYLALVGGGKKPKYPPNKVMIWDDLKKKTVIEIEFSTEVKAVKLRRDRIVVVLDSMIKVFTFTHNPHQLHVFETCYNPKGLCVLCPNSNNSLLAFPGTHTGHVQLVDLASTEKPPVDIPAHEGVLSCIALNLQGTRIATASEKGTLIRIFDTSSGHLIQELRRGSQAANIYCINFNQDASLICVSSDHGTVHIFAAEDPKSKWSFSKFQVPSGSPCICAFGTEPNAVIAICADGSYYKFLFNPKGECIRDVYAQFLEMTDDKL

Target: SUMO-tagged WIPI3^Δ (human WIPI3 residues 8–344 without residues 264–281) (human) (UniProt Q5MNZ6)
Assay: SEC; competition: a pre-formed complex incubated with an increasing molar ratio of the competitor, then SEC; fractions analysed by SDS-PAGE with Coomassie staining; both purified

binding: binds
Binder: EPVVTQLHPGPIVVRDGYFSRPIGS (peptide, UniProt Q2TAZ0 1378-1402) [Trx-ATG2A(1378–1402)]
